From patent publication US20230374092A1 come the findings set out here.

The chains behind the UniProt entries cited, without tags or fusion partners.
UniProt P09874: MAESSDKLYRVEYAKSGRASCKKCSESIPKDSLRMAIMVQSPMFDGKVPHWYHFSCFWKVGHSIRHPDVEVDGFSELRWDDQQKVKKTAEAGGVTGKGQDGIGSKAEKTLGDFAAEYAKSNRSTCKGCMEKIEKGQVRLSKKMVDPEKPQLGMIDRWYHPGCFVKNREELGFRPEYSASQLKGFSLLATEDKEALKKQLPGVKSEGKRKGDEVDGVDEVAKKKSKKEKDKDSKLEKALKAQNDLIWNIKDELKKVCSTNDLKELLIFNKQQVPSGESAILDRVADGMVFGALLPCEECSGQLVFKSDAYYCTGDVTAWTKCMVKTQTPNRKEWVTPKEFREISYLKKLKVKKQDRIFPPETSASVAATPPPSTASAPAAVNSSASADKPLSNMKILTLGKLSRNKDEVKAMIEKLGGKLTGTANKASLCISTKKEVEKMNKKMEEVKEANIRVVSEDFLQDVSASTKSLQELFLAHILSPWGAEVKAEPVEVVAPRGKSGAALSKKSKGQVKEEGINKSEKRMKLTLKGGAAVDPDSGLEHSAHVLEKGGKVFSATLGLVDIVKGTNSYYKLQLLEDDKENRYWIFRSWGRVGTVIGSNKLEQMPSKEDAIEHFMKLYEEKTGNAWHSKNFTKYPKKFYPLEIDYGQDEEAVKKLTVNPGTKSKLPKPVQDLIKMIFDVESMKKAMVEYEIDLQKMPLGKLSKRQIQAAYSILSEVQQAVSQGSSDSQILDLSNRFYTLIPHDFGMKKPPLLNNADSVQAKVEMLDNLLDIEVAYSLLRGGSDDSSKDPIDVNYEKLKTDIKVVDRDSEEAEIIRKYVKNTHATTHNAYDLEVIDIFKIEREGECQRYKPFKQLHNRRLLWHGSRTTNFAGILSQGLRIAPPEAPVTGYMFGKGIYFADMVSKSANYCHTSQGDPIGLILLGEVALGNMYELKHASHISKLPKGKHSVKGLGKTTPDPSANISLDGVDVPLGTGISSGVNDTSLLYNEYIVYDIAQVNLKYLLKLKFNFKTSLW
UniProt Q15046: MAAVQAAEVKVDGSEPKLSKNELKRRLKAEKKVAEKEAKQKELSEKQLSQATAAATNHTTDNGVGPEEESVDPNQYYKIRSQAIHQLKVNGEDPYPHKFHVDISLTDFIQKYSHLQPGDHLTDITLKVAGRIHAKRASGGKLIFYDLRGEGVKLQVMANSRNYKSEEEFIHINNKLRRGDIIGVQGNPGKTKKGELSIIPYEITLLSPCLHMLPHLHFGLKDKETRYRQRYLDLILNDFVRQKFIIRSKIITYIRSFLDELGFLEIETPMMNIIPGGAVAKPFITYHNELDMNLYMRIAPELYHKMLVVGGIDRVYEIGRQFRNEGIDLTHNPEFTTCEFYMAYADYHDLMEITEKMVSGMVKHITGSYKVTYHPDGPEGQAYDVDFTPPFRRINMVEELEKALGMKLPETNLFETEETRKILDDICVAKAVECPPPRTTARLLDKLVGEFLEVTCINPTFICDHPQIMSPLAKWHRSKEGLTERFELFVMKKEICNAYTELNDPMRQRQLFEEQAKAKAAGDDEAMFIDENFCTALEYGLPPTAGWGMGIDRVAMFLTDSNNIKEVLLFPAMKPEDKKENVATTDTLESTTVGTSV

These are yes or no findings as the source states them, for the method shown. Some binding calls cover weakened binding; strength is not graded here. For some assays here: Where a sequence is shown, tags or fusion partners need not be part of it.

Assay [1] concerns the target PARP-1 (UniProt P09874). The assay is described as follows: binding assay (figure legend).
Assay [2] has as its target PARP-1 (UniProt P09874). The experiment in a line: PARP-1 pull-down from transfected SH-SY5Y cells.
In assay [3] the target is KARS1 (lysyl-tRNA synthetase), full length (UniProt Q15046). The experiment in a line: IP of myc-KARS1 from N2A cells, immunoblot.
Assay [4] concerns the target PARP-1 (UniProt P09874). The assay is described as follows: binding assay (figure legend); AIMP2 is the weaker binder.
In assay [5] the target is PARP-1 (UniProt P09874). The assay is described as follows: PARP-1 pull-down from transfected SH-SY5Y cells; AIMP2 is the weaker binder.

B1: AIMP2-DX2 (exon 2-deleted AIMP2 splicing variant) (protein)
chain: MPMYQVKPYHGGGAPLRVELPTCMYRLPNVHGRSYGPAPGAGHVQDYGALKDIVINANPASPPLSLLVLHRLLCEHFRVLSTVHTHSSVKSVPENLLKCFGEQNKKQPRQDYQLGFTLIWKNVPKTQMKFSIQTMCPIEGEGNIARFLFSLFGQKHNAVNATLIDSWVDIAIFQLKEGSSKEKAAVFRSMNSALGKSPWLAGNELTVADVVLWSVLQQIGGCSVTVPANVQRWMRSCENLAPFNTALKLLK
On to B1, for which the binding result in the assay with PARP-1 [1] and with PARP-1 [2] was “binds” in each case.

B2: AIMP2 detected in the myc-KARS1 immunoprecipitate from N2A cells (protein, UniProt Q8R010 1-320, looked up)
chain: MPMYQVKPYHGGSAPLHVELPTCMYRLPNVHSKTTSPATDAGHVQETSEPSLQALESRQDDILKRLYELKAAVDGLSKMIHTPDADLDVTNILQADEPTTLATNTLDLNSVLGKDYGALKDIVINANPASPPLSLLVLHRLLCERYRVLSTVHTHSSVKNVPENLVKCFGEQARKQSRHEYQLGFTLIWKNVPKTQMKFSVQTMCPIEGEGNIARFLFSLFGQKHNAVTLTLIDSWVDIAMFQLREGSSKEKAAVFRSMNSALGRSPWLVGNELTVADVVLWSVLQQTGGSSGAAPTNVQRWLKSCENLAPFSTALQLLK
For the molecule B2, in assay [3], the binding entry was “binds”.

B3: AIMP2 (aminoacyl tRNA synthase complex-interacting multifunctional protein 2), expressed from a plasmid (protein)
chain: MPMYQVKPYHGGGAPLRVELPTCMYRLPNVHGRSYGPAPGAGHVQEESNLSLQALESRQDDILKRLYELKAAVDGLSKMIQTPDADLDVTNIIQADEPTTLTTNALDLNSVLGKDYGALKDIVINANPGSPPLSLLVLHRLLCEHFRVLSTVHTHSSVKSVPENLLKCFGEQNKKQPRQDYQLGFTLIWKNVPKTQMKFSIQTMCPIEGEGNIARFLFSLFGQKHNAVNATLIDSWVDIAIFQLKEGSSKEKAAVFRSMNSALGKSPWLAGNELTVADVVLWSVLQQIGGCSVTVPANVQRWMRSCENLAPFNTALKLLK
B3: the binding entry with PARP-1 [4] and with PARP-1 [5] was “binds” throughout.
